The record followed here is PMC4770193.

By UniProt entry, the sequences of proteins in these tests, tags left out.
UniProt P04610: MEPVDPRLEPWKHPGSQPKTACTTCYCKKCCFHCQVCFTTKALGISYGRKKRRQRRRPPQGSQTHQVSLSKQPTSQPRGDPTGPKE
UniProt Q04759: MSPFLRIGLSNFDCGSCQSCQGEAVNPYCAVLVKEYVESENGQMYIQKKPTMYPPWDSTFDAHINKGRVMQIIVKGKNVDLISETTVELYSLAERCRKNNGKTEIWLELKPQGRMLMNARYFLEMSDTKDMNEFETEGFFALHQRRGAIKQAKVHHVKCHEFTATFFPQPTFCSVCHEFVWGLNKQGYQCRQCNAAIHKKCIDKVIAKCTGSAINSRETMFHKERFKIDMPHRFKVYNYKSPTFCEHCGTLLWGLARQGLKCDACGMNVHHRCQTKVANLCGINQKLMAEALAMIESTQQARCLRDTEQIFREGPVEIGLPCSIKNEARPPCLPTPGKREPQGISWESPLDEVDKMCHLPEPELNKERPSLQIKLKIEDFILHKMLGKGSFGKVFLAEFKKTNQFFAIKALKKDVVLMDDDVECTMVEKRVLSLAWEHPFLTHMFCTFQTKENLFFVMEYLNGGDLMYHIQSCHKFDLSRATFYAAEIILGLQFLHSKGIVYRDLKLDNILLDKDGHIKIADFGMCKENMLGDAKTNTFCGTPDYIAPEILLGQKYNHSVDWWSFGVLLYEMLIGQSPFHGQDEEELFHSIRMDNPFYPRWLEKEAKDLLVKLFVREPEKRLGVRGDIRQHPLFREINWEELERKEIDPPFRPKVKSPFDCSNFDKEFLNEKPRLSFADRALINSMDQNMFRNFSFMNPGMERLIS

Results are given in words; binding and its absence hold for the method and conditions named. Some results given as binding are weak or reduced against the parent protein; the word gives no strength.

The test addresses HIV-1 Tat of strain NL4-3_wt in infected human PBLs (HIV-1) (UniProt P04610). Nature of the test: sequential ChIP (re-ChIP); primary ChIP with an antibody against Tat, then secondary ChIP with an antibody against PKCθ; recovered DNA read by qPCR with primers spanning -39 to +66 of the HIV-1 LTR promoter (contains the TAR loop); Jurkat E6-1 cells transfected with HIV-1 clone, and human PBLs infected with NL4-3_wt for 3 days; N = 2. Background: Real-time PCR tracks product formation cycle by cycle.

With “PKCθ (protein kinase C theta), endogenous in human peripheral blood lymphocytes (from UniProt Q04759 1-706) (enzyme)”, the binding entry is “binds”.
